Data from paper PMC2288612, “The Mre11 protein interacts with both Rad50 and the HerA bipolar helicase and is recruited to DNA following gamma irradiation in the archaeon Sulfolobus acidocaldarius” (BMC Molecular Biology, 2008).
These are yes or no findings as the source states them, for the method shown. For some of these results: In cells and extracts the contact can be indirect. Some binding calls cover weakened binding; strength is not graded here.

T1: Rad50 protein of Sulfolobus acidocaldarius (endogenous) (S. acidocaldarius (endogenous in S. acidocaldarius DSM 639)) (UniProt O33600)
T1 sequence: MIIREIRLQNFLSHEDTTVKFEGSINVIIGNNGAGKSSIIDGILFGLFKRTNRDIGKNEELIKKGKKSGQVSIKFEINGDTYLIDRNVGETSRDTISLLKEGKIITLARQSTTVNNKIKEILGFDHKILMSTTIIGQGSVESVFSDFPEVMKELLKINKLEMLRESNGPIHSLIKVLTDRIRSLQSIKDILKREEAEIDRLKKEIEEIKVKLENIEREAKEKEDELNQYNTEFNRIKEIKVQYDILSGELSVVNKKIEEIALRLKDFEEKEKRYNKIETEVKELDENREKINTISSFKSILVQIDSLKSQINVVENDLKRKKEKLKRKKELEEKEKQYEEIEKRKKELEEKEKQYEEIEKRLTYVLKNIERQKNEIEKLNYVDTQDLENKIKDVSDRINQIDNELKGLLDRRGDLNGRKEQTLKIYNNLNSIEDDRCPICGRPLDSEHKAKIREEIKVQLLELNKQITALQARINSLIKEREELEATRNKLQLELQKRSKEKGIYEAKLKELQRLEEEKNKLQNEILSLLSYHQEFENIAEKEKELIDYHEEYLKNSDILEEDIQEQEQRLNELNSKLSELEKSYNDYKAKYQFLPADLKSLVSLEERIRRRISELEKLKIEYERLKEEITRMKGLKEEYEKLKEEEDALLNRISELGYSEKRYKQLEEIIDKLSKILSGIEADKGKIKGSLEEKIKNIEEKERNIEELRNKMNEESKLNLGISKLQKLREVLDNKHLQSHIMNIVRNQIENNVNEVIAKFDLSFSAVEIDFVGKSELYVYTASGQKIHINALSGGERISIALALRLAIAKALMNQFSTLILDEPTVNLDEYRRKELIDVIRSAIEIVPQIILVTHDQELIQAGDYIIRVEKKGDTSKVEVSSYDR

T2: Rad50 recombinant protein (Sulfolobus acidocaldarius) (S. acidocaldarius) (UniProt O33600)
T2 sequence: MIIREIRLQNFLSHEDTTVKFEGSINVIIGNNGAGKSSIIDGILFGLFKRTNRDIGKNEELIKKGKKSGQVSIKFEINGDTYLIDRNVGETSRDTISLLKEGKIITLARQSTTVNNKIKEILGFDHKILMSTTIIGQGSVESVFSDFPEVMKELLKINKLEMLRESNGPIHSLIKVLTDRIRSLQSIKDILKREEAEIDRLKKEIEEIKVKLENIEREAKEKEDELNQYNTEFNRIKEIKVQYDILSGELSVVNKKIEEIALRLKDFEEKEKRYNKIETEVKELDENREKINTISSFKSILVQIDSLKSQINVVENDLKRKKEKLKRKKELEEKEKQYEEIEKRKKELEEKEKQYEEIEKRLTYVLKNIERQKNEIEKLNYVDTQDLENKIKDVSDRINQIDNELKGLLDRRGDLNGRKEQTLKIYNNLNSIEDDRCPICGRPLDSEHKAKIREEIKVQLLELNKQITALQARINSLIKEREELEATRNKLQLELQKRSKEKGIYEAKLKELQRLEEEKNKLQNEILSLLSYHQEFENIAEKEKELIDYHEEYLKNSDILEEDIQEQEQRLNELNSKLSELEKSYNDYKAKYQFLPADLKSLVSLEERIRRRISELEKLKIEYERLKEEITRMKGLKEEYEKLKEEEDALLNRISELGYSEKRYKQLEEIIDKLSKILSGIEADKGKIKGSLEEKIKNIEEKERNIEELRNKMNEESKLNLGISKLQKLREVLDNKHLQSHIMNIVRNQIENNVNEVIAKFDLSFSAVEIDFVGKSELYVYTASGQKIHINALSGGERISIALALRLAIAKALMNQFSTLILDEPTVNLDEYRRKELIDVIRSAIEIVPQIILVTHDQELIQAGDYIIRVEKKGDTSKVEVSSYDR


How the values were obtained:
[1] = molecular target: T1, Rad50 protein of Sulfolobus acidocaldarius (endogenous) (S. acidocaldarius (endogenous in S. acidocaldarius DSM 639)); experiment: co-IP; anti-Rad50 purified IgGs and protein A-sepharose on extracts of exponentially growing S. acidocaldarius cells (total extract, soluble fraction, chromosomal-enriched fraction treated with DNase I; irradiated or non-irradiated cells); 4°C; IP buffer 20 mM Hepes pH 7.5, 100 mM NaCl, 15 mM MgCl2, 5 mM beta-mercaptoethanol; immunoblot
[2] = molecular target: T2, Rad50 recombinant protein (Sulfolobus acidocaldarius) (S. acidocaldarius); experiment: co-IP; anti-Rad50 purified IgGs and protein A-sepharose on a mixture of purified recombinant proteins (60 nM Rad50, Mre11 and NurA, 300 nM HerA) in IP buffer (20 mM Hepes pH 7.5, 100 mM NaCl, 15 mM MgCl2, 5 mM beta-mercaptoethanol); 4°C; immunoblot; both purified

| binding [1] | Binder | binding [2] |
| --- | --- | --- |
| no binding | NurA nuclease of Sulfolobus acidocaldarius (endogenous) (protein, UniProt F2Z6F6 1-332) MIDKAYEELIKMKEKIMRDSYTIHKELSESVESILNELWINYSPESVEHSKKLLAIDGGMWVKETRQGVIFIVNAKAIVFEGINEINSEGKVLVHIFSPGNYAKERIELLMQLLELQLALKLVENVDYVLLDGSFSKKLGRHKSELKVDLLDDIVSIDKILSLEEKDEDNMLRFLIAENQLVLSELVSRYKDKLLFISKNSKSSDLFKQAYSDITILELFTQNCGYSKILEKKIDENYILSRKASKLLSGLNYYFTNLRLEPSERLFRLDFFNADKIFEYLKVLKPVSLKGYPYPLIKVHKDVRVGKEDRERIYSILEMKRKDISWWPSQFY | – |
| – | NurA recombinant protein (Sulfolobus acidocaldarius) (protein, UniProt F2Z6F6 1-332) MIDKAYEELIKMKEKIMRDSYTIHKELSESVESILNELWINYSPESVEHSKKLLAIDGGMWVKETRQGVIFIVNAKAIVFEGINEINSEGKVLVHIFSPGNYAKERIELLMQLLELQLALKLVENVDYVLLDGSFSKKLGRHKSELKVDLLDDIVSIDKILSLEEKDEDNMLRFLIAENQLVLSELVSRYKDKLLFISKNSKSSDLFKQAYSDITILELFTQNCGYSKILEKKIDENYILSRKASKLLSGLNYYFTNLRLEPSERLFRLDFFNADKIFEYLKVLKPVSLKGYPYPLIKVHKDVRVGKEDRERIYSILEMKRKDISWWPSQFY | no binding (tested: 60 nM NurA, 60 nM Rad50) |
| binds | HerA recombinant protein (Sulfolobus acidocaldarius) (natural protein, S. acidocaldarius, UniProt F2Z5Z6 1-495, looked up, HerA bipolar DNA helicase, Sulfolobus acidocaldarius, purified recombinant protein; also called HerA bipolar helicase) MTIGYIIGSATINEATAILEQKIRAGYYVILEYDGDKILGLITNVYTGSPLLDDNLNDVKFVQRIKQLEANKIPFFIKARIKLLCKLDGKFTQPDLPPVAGTPVRLASDEELSTVFSAGDVRIGKLIGSNVEVKIRLNPLSRHLAILAATGSGKSNTVAILSQRLVEIGGSILIFDYHGEYYDSTLPNLNIIEPKLNPLYLSVNEFATLLEIRENANIQYRIIRRTFNQLKEEINNEIKEGKTSLAELNSNFFERLKVKIEEEGRNEKRKESKDEVLNKVEDFAERYSDIIDITFGDVINKIKLGKINVVNLSSLDEDAIDAIVAHYLRRILTSRKENKIKKDSGLKFPILTVVEEAHVLLSKDTNTLTKKWAGRIAREGRKFGVGLIIVSQRPKGLDENILSQMTNKIILKIVEPSDKKYVLETSDNLSEDLADGLSSLDTGEAIIIGNVVKLPTIIKIDKFEGKLSGSDPNLTEEWKRAKEEEIVHSDVSDWG | – |
| binds | Mre11 recombinant protein (Sulfolobus acidocaldarius) (natural protein, S. acidocaldarius, UniProt Q8NKQ0 1-382, looked up, Mre11, Sulfolobus acidocaldarius, purified recombinant protein; source: recombinant, purified (Ni-NTA, gel filtration through Sephadex 200)) MQLLHISDTHLGKRQYNLESREKDVYDTFTQLIDIAINEHVKAVIHTGDLFDVNNPPNRAKLHAIKELKRLKDHNIPFICIAGDHDSPKRKEEIYPQRILEEFNLIKILQKIDNRVKLENVEVYGISHISNVSVNDLKEQLSKVKPETRKSILMLHQGIRTYLPYQGAWQIELSDLPKGFSLYAVGHLHSRRKDYLDGGALIEIAGSPDIMREEEIEDYQKSKKGATLIDMSGDLPSINYINVNIRDQLVLDINVDKIEQSIESVIQKLKENVKNDKKPILHIELEGTVPIRKDVLMTKLQALRDYVEHYRIYKNNIVSIKEENLKTKLKTTYSSLNDIIADYLKGIGYTDEETKIIIDIINEEDEKKVEELLKKFAGVEDK | – |
